# Results deposited as PubChem BioAssay AID1224826 (NIAID, 2016).
# Purpose: 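Genes that change LPS-induced Tnf promoter activity in mouse macrophages when knocked down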 (primary screen)
# Cell system: RAW264.7 G9 macrophages from mouse bearing reporters for p65 (GFP) and the Tnf promoter (mCherry)
# Reagents: siRNA pool against mouse genes, 100 nM
# Time to read-out: 16 h of LPS stimulation, after 2 days of siRNA transfection
# Treatment: bacterial lipopolysaccharide (Salmonella minnesota R595), 10 ng/ml
# Measurement: 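Imaged Tnf reporter mCherry in nuclei, minus background, normalised per plate to the median and expressed as robust z-scores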
# Reading the numbers: Tnf reporter robust z-score: higher = stronger Tnf promoter reporter signal after LPS; Tnf reporter intensity: higher = stronger Tnf promoter reporter signal
# Hit rule: 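Called active when robust z-score is at most -1.3, matching the median of the Tlr4 knock-down control, or over 3; control wells and wells with under 50 cells never active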
# Meaning of the calls: active = Tnf reporter clearly lowered or raised; inactive = no clear change in Tnf reporter
# Shown is a random part of about 17,000 deposited reagents. About 1,110 of them (6.6%) count as active. 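Active means lowered or raised reporter signal; replicate intensities are raw and not normalised per plate.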 Unmarked entries are inactive. The numbers tell different reagents against one gene apart. Not all columns of the deposit are shown.
Tnf reporter robust z-score,fewer than 50 cells in well,"Tnf reporter intensity, replicate 1",target gene,pool no.
-0.09,enough cells in well,220,Creb3,1
-0.39,enough cells in well,130,Apobec1,1
1.41,enough cells in well,291,Krt82,1
0.03,enough cells in well,247,Ctnna2,1
0.8,enough cells in well,266,Defa-rs2,1
0.23,enough cells in well,234,Nrxn3,1
-0.29,enough cells in well,195,Il15,1
-0.26,enough cells in well,168,Prr14,1
-1.23,enough cells in well,190,Relb,1
-1.06,enough cells in well,176,Foxd4,1
0.45,enough cells in well,175,Phf8,1
1.01,enough cells in well,249,Zfp329,1
-0.07,enough cells in well,276,Gad2,1
1.88,enough cells in well,364,Fbxo41,1
1.11,enough cells in well,221,Gm9975,1
,fewer than 50 cells per well; well left out of calls,19.7,Slc2a9,1
0.39,enough cells in well,288,Nr3c1,1
-0.23,enough cells in well,168,Rnase2b,1
-0.22,enough cells in well,100,Caskin1,1
0.82,enough cells in well,276,Kcnj10,1
-0.72,enough cells in well,175,Pou3f2,1
0.13,enough cells in well,237,Gopc,1
-0.69,enough cells in well,114,Bcl2,1
0.61,enough cells in well,233,Ncald,1
-0.05,enough cells in well,209,Tub,1
-1.16,enough cells in well,167,Tnni3,1
-1.39 (active),enough cells in well,123,Eif3f,1
-1.5 (active),enough cells in well,142,Slc4a1,1
-1.16,enough cells in well,63.7,Vmn1r32,1
1.59,enough cells in well,305,Irak1,1
0.57,enough cells in well,237,Tm4sf4,1
-0.27,enough cells in well,171,Fryl,1
-0.06,enough cells in well,235,Fryl,2
-0.47,enough cells in well,153,Tspyl3,1
0.56,enough cells in well,264,Cdk13,1
0.25,enough cells in well,220,Uroc1,1
0.15,enough cells in well,224,D430041D05Rik,1
2.53,enough cells in well,127,Or6c69b,1
-0.13,enough cells in well,173,Slfnl1,1
,fewer than 50 cells per well; well left out of calls,719,4930583K01Rik,1
0.18,enough cells in well,85.8,Rrp9,1
0.44,enough cells in well,183,Ca2,1
1.65,enough cells in well,204,Tiaf2,1
0.51,enough cells in well,159,Bcl2l11,1
0.05,enough cells in well,151,Tgfbrap1,1
,fewer than 50 cells per well; well left out of calls,50,Osbpl10,1
0.75,enough cells in well,179,Osbpl10,2
,fewer than 50 cells per well; well left out of calls,34.7,Or6c208,1
,fewer than 50 cells per well; well left out of calls,78.4,Pgap2,1
,fewer than 50 cells per well; well left out of calls,93.6,Tbc1d1,1
-0.08,enough cells in well,209,Slc1a1,1
4.61 (active),enough cells in well,255,Tdrd1,1
1.57,enough cells in well,462,Erg28,1
3.98 (active),enough cells in well,513,2810032G03Rik,1
-0.56,enough cells in well,180,Slc25a4,1
-1.52 (active),enough cells in well,143,Tpd52l2,1
-1.14,enough cells in well,101,Trav13-5,1
-1.08,enough cells in well,189,Krt6a,1
-1.87 (active),enough cells in well,157,Kank1,1
-1.55 (active),enough cells in well,107,Myadm,1
-0.81,enough cells in well,148,Gca,1
0.83,enough cells in well,251,Prkcsh,1
-0.75,enough cells in well,158,Coro1a,1
1.79,enough cells in well,315,Prr15,1
0.56,enough cells in well,125,Tpst1,1
-0.47,enough cells in well,209,Ptgds,1
-1.06,enough cells in well,78.2,Vmn1r214,1
-0.83,enough cells in well,227,G3bp1,1
-1.07,enough cells in well,115,Poglut3,1
-0.69,enough cells in well,121,Sp110,1
0.63,enough cells in well,281,Crhbp,1
0.26,enough cells in well,189,Cklf,1
0.35,enough cells in well,194,Cbfb,1
1.85,enough cells in well,119,Or52b2,1
-0.34,enough cells in well,95.4,Ptpn20,1

Limited to “fewer than 50 cells in well”, for 11 of the entries above:
D430041D05Rik	enough cells in well
Or6c69b	enough cells in well
Slfnl1	enough cells in well
4930583K01Rik	fewer than 50 cells per well; well left out of calls
Rrp9	enough cells in well
Ca2	enough cells in well
Tiaf2	enough cells in well
Bcl2l11	enough cells in well
Tgfbrap1	enough cells in well
Osbpl10 #1	fewer than 50 cells per well; well left out of calls
Osbpl10 #2	enough cells in well
